Earlier results in patent US20220235255A1, “FLUORINE SUBSTITUTED UNSYMMETRICAL ETHERS, AND COMPOSITIONS, METHODS AND USES INCLUDING SAME” (HONEYWELL INTERNATIONAL INC., priority 2021, published 2022).

conditions: GWP of the primary refrigerant; cited from earlier work

**Q.** Which “GWP Primary” value does the source give for `CCC` [Propane] here?
**A.** 3

**Q.** Which “GWP Primary” value does the source give for `F/C=C/C(F)(F)F` [R1234ze(E)] here?
**A.** <1

**Q.** With `C=C(F)C(F)(F)F` [Compound R1234yf] as the compound, how does the “GWP Primary” value read?
**A.** <1
